Source: PubChem BioAssay AID1053208 (Peter MacCallum Cancer Centre, 2014)

Test: 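Find knock-downs that sensitise mouse osteosarcoma cells to doxorubicin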 (primary screen)
Cell system: mouse osteosarcoma cells, early-passage culture from an engineered mouse model of fibroblastic bone tumour
Knock-down reagent: siRNA pool against mouse genes, 40 nM
Timing: about 120 h (48 h before drug, then 72 h with drug)
Treatment: doxorubicin 100 nM for 72 h, roughly 30-40% inhibitory dose
Measured: 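Luminescent ATP signal taken as viability with or without 100 nM doxorubicin for 72 h; mean of two wells set against non-targeting siRNA and turned into robust z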
Scale: viability z-score with doxorubicin: higher = more viable cells under doxorubicin; viability z-score without drug: higher = more viable cells with knock-down alone
Rule for the call: 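a pool counts as active when its viability z-score with doxorubicin is -2 or below and its z-score without drug lies between -2 and 2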
The deposit covers about 17,000 reagents; shown is a part drawn at random. Of all reagents, 788 (4.7%) are marked active. 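Calls rest on z-score classes alone; an extra cut-off of viability at most 70% of control was not applied to them.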 Further read-outs or replicates are left out here. No sequences are given here.

Gene	combined z-score class	viability z-score with doxorubicin	viability z-score without drug	Call
Il1bos	no change with or without drug	0.34	1.69	inactive
Ctnnbl1	no change with or without drug	1.46	-0.51	inactive
Or7c70	no change with or without drug	-0.56	-0.84	inactive
Or8s2	no change with or without drug	-0.22	-0.34	inactive
Or4a69	no change with or without drug	0.79	-1.35	inactive
Ctsll3	no change with or without drug	-1.8	-0.67	inactive
Hcrtr2	no change with or without drug	0.11	-0.51	inactive
Galnt1	no change with or without drug	1.46	1.85	inactive
Htr2c	no change with or without drug	-0.34	-0.34	inactive
Rnf144a	no change with or without drug	0	0.17	inactive
Tiprl	no change with or without drug	-0.45	1.18	inactive
Cpne3	no change with or without drug	-0.22	-0.51	inactive
Aph1a	high cell count without drug only	-1.24	2.02	inactive
Pcid2	no change with or without drug	0.9	0.51	inactive
Phtf2	no change with or without drug	-0.45	-1.52	inactive
AI182371	no change with or without drug	0.45	0.67	inactive
Art2a	no change with or without drug	0.9	-0.51	inactive
Txndc8	no change with or without drug	-0.45	1.35	inactive
St6gal1	no change with or without drug	-0.67	-0.67	inactive
Snx29	no change with or without drug	-0.45	-0.17	inactive
1700067K01Rik	high cell count with and without drug	2.59	2.53	inactive
Gpr21	high cell count with doxorubicin only	2.7	0.51	inactive
Dmrt1	no change with or without drug	0.79	-0.51	inactive
Fam20b	no change with or without drug	0	0.67	inactive
Ebf2	no change with or without drug	-0.79	0.51	inactive
Prss37	no change with or without drug	0.45	1.18	inactive
Wipi2	no change with or without drug	1.57	0	inactive
Exph5	no change with or without drug	1.24	1.52	inactive
Phka1	no change with or without drug	0.22	-0.17	inactive
Slpi	no change with or without drug	1.57	1.18	inactive
Or52z13	no change with or without drug	0.45	0.17	inactive
Polr1f	low cell count without drug only	-0.22	-3.04	inactive
Drc8	low cell count with doxorubicin only	-2.02	0.67	active
Lrig3	no change with or without drug	1.57	1.01	inactive
Pelo	low cell count with and without drug	-2.7	-2.53	inactive
Skap1	no change with or without drug	0.56	-0.17	inactive
Ucp3	no change with or without drug	0.45	-1.35	inactive
Lxn	no change with or without drug	-0.34	-0.84	inactive

Continued; the last 9 above are carried over.
Gene	combined z-score class	viability z-score with doxorubicin	viability z-score without drug	Call
Slpi	no change with or without drug	1.57	1.18	inactive
Or52z13	no change with or without drug	0.45	0.17	inactive
Polr1f	low cell count without drug only	-0.22	-3.04	inactive
Drc8	low cell count with doxorubicin only	-2.02	0.67	active
Lrig3	no change with or without drug	1.57	1.01	inactive
Pelo	low cell count with and without drug	-2.7	-2.53	inactive
Skap1	no change with or without drug	0.56	-0.17	inactive
Ucp3	no change with or without drug	0.45	-1.35	inactive
Lxn	no change with or without drug	-0.34	-0.84	inactive
Tespa1	no change with or without drug	-1.24	-0.67	inactive
Slc9a6	no change with or without drug	-0.22	-0.17	inactive
Ptgdr2	no change with or without drug	-1.57	-0.17	inactive
Fndc7	no change with or without drug	-0.9	1.35	inactive
Nefl	high cell count with doxorubicin only	2.14	-0.84	inactive
Itk	no change with or without drug	0.67	-0.17	inactive
Erg	low cell count with doxorubicin only	-2.25	-1.35	active
Fermt3	no change with or without drug	0.22	0.17	inactive
Myc	no change with or without drug	-0.34	0.17	inactive
Cs	low cell count with doxorubicin only	-2.02	0.17	active
Romo1	low cell count with doxorubicin only	-3.26	1.35	active
Vat1l	no change with or without drug	0	1.18	inactive
Eras	no change with or without drug	0	0.51	inactive
Ceacam2	low cell count with doxorubicin only	-2.14	-0.51	active
Dctn6	high cell count with doxorubicin only	2.02	1.52	inactive
Cyp2j5	no change with or without drug	-0.56	1.01	inactive
Mbd1	no change with or without drug	0.45	-0.34	inactive
Usp31	no change with or without drug	0.34	0.34	inactive
Dnai1	no change with or without drug	0.22	-0.84	inactive
Gm4793	no change with or without drug	-1.12	-0.51	inactive
Gpr174	no change with or without drug	0.9	-1.18	inactive
Sult1c1	no change with or without drug	-0.22	-1.01	inactive
Tmem154	no change with or without drug	1.91	0.51	inactive
Nr5a2	no change with or without drug	0.9	-0.17	inactive
Rif1	no change with or without drug	0.67	0.51	inactive
